These are yes or no findings as the source states them, for the method shown. Some binding calls cover weakened binding; strength is not graded here. For part of these data: Sequences can lack the tags named with a protein.
Assays:
[1] = molecular target: T1, BTN1A1 in human prostate cancer samples (human) (UniProt Q13410); experiment: OPAL multiplexed immunofluorescence on prostate tumor samples
T1 sequence: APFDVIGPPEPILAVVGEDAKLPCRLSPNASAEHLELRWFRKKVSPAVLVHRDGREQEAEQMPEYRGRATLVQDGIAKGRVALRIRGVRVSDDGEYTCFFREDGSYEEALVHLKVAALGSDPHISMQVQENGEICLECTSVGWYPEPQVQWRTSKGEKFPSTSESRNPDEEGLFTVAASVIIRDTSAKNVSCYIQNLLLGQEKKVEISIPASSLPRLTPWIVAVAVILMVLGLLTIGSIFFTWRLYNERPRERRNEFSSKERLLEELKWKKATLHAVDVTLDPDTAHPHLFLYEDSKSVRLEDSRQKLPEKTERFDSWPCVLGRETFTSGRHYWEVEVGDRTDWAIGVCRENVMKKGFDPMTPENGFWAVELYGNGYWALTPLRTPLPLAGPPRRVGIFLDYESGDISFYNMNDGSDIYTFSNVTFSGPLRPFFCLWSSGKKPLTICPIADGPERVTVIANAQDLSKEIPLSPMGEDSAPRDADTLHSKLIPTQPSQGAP

Protein sequences, listed by entry. Tags and fused reporters are not part of them. Lines headed by an entry give the natural chain unless they say otherwise; changes in a name come on top.
UniProt Q13410: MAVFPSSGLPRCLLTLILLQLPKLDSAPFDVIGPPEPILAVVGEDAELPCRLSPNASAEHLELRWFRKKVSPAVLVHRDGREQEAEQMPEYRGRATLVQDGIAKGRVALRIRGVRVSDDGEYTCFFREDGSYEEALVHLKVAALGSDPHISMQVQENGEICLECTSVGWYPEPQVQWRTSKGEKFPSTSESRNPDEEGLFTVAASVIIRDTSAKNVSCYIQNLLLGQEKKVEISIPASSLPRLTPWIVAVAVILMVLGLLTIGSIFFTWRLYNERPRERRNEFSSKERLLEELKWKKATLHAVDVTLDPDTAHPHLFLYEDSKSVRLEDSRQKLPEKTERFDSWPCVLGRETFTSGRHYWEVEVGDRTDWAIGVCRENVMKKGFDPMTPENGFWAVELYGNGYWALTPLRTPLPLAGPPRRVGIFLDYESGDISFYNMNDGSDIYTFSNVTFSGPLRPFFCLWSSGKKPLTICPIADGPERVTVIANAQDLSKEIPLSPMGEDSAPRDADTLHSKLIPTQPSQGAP

[2] = molecular target: T2, human BTN1A1 extracellular domain tagged with 6xHis (human) (UniProt Q13410); experiment: dot blot, glycosylated vs PNGase F treated BTN1A1-ECD-His on solid phase
T2 sequence (chain, N-glycosylated (removed by PNGase F in the deglycosylated control)): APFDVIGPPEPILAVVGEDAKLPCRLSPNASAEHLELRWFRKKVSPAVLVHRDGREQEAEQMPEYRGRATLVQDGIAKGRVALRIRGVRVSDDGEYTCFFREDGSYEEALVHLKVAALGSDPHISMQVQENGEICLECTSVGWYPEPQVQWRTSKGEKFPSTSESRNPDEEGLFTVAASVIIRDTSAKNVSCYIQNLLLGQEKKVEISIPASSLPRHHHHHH

[3] = molecular target: T1, BTN1A1 in human prostate cancer samples (human); experiment: IHC on formalin-fixed paraffin-embedded prostate tumor sections, 3 and 5 µg/ml, DAB

Measured: binding

B1: mouse monoclonal anti-human BTN1A1 antibody STC810 (antibody, V domains shown)
VH: EVQLQQSGPELVKPGASVKISCKASGYTFTHYNMDWVKQSHGKSLEWIGYIYPSNGGTGYNQKFKSRATLTVDKSSSTAYMELHSLTSEDSAVYYCARGAYHYGSSYAYWYFDVWGAGTTVTVSS
VL: DIQMTQTTSSLSASLGDRVTISCSASQDISNYLNWYQQKPDETVKLLISYTSSLHSGVPSRFSGSGSGTDYSLTISNLAPEDIATYYCQQSSKLPFTFGSGTELEIKR
notes: also called STC838; STC810 MAb
binds: all assays above

Reference: patent US20180355035A1 (STCUBE, published 2018)
